Results are given in words; binding and its absence hold for the method and conditions named. For some of these results: In cells and extracts the contact can be indirect. Some entries that bind do so weakly or less than the wild type. Where a sequence is shown, tags or fusion partners need not be part of it.
What was measured:
[1] = target: T1, His-tagged Orc1 (Orc1-His), wild type (S. cerevisiae) (UniProt P54784); assay: pull-down; cleared lysates of 293T cells co-overexpressing Orc1-His, Orc2, Orc3, Orc4, Orc5 with or without Orc6; pulldown by the His tag; 9% SDS-PAGE, Coomassie staining
T1 sequence: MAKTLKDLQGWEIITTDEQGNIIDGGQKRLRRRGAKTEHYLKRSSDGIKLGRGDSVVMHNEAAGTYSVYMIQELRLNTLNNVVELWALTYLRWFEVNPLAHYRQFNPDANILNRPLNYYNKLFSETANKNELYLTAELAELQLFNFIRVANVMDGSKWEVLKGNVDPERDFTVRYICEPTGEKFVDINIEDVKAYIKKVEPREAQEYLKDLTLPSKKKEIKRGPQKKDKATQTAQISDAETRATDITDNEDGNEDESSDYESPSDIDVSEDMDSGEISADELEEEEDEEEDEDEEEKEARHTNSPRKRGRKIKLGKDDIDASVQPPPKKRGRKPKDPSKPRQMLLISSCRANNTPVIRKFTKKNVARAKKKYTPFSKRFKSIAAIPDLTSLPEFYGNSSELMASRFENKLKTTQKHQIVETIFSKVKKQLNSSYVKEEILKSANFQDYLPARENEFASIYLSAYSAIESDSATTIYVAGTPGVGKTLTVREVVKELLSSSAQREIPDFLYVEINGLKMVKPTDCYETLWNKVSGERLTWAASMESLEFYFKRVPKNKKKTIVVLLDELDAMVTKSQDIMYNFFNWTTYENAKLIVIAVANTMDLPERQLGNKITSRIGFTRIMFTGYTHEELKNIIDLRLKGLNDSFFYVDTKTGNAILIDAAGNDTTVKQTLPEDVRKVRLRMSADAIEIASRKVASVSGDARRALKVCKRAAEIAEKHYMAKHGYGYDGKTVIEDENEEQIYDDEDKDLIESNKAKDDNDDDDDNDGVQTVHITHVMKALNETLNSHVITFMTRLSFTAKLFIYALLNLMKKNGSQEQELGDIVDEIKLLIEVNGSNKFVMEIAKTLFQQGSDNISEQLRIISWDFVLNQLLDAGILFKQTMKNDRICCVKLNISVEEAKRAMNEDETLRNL

[2] = target: T1, His-tagged Orc1 (Orc1-His), wild type (S. cerevisiae); assay: SEC; Superdex 200 in buffer H/0.2 (200 mM KCl) of the peak fractions after His affinity step and SP Sepharose; fractions on 9% SDS-PAGE, Coomassie; subunits co-expressed in 293T cells
[3] = target: T2, His-tagged Orc1 K362A (S. cerevisiae) (UniProt P54784); assay: as above
T2 sequence: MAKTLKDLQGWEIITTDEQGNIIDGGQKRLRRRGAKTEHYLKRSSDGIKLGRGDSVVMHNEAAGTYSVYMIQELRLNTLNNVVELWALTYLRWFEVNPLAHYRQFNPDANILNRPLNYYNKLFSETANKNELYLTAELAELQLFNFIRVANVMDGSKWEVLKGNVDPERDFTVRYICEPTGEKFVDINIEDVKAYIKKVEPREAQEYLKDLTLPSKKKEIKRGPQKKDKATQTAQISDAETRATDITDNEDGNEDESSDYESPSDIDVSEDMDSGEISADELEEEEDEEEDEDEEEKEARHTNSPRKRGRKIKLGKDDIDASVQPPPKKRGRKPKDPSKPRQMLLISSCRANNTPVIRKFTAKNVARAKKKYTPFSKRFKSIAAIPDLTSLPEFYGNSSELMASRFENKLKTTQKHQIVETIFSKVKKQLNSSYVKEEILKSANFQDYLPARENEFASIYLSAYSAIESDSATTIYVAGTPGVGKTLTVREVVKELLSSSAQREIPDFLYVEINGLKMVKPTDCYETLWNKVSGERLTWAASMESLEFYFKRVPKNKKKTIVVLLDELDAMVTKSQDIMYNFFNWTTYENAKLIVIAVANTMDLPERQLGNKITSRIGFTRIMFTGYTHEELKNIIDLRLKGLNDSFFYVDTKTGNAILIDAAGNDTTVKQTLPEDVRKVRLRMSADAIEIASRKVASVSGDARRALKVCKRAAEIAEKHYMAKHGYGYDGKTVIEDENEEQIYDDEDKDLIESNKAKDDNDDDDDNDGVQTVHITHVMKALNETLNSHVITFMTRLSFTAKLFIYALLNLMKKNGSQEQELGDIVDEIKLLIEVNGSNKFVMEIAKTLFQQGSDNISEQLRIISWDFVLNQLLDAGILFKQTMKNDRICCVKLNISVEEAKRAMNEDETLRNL

[4] = target: T3, His-tagged Orc1 R367A (S. cerevisiae) (UniProt P54784); assay: as above
T3 sequence: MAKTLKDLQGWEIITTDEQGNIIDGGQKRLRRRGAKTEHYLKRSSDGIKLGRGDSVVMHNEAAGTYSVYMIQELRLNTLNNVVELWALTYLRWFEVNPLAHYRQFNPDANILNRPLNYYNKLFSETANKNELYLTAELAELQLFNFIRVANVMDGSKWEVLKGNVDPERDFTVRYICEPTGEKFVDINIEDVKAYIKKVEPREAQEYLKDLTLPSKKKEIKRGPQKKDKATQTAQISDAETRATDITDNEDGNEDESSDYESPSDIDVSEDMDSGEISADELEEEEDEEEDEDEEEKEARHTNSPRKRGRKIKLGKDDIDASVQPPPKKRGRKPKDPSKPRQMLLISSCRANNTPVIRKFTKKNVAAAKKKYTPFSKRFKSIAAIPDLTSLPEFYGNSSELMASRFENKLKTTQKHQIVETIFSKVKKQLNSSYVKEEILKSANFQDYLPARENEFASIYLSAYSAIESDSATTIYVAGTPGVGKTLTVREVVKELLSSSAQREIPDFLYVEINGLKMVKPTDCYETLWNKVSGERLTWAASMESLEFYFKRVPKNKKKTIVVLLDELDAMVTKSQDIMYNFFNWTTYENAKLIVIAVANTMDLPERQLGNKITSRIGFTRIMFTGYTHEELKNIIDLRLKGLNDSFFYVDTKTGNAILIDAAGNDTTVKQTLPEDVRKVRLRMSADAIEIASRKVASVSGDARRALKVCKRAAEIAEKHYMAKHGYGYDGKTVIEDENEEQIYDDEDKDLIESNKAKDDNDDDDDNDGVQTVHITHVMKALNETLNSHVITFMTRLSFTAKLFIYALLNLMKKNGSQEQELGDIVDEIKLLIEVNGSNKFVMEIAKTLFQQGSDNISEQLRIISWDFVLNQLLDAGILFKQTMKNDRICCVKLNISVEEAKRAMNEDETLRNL

[5] = target: T1, His-tagged Orc1 (Orc1-His), wild type (S. cerevisiae); assay: HisTrap affinity column chromatography; HisTrap column with linear imidazole gradient elution of lysate of 293T cells co-overexpressing His-tagged Orc1 (wild type or mutant) and Orc2/3/4/5/6; fractions on 9% SDS-PAGE, Coomassie
[6] = target: T2, His-tagged Orc1 K362A (S. cerevisiae); assay: as above
[7] = target: T3, His-tagged Orc1 R367A (S. cerevisiae); assay: as above
[8] = target: T1, His-tagged Orc1 (Orc1-His), wild type (S. cerevisiae); assay: pull-down; MagneHis beads, 1 h, in lysis buffer (50 mM Hepes-KOH pH 7.6, 0.3% NP-40, 400 mM KCl, 17.5 mM imidazole) with nuclease-treated lysate of 293T cells co-overexpressing Orc1-His and Orc2/3/4/5; five washes, elution with 500 mM imidazole; SDS-PAGE, Coomassie

Measured: binding

B1: Orc3 (protein, UniProt P54790 1-616)
chain: MSDLNQSKKMNVSEFADAQRSHYTVYPSLPQSNKNDKHIPFVKLLSGKESEVNVEKRWELYHQLHSHFHDQVDHIIDNIEADLKAEISDLLYSETTQKRRCFNTIFLLGSDSTTKIELKDESSRYNVLIELTPKESPNVRMMLRRSMYKLYSAADAEEHPTIKYEDINDEDGDFTEQNNDVSYDLSLVENFKRLFGKDLAMVFNFKDVDSINFNTLDNFIILLKSAFKYDHVKISLIFNINTNLSNIEKNLRQSTIRLLKRNYHKLDVSSNKGFKYGNQIFQSFLDTVDGKLNLSDRFVEFILSKMANNTNHNLQLLTKMLDYSLMSYFFQNAFSVFIDPVNVDFLNDDYLKILSRCPTFMFFVEGLIKQHAPADEILSLLTNKNRGLEEFFVEFLVRENPINGHAKFVARFLEEELNITNFNLIELYHNLLIGKLDSYLDRWSACKEYKDRLHFEPIDTIFQELFTLDNRSGLLTQSIFPSYKSNIEDNLLSWEQVLPSLDKENYDTLSGDLDKIMAPVLGQLFKLYREANMTINIYDFYIAFRETLPKEEILNFIRKDPSNTKLLELAETPDAFDKVALILFMQAIFAFENMGLIKFQSTKSYDLVEKCVWRGI
binds: [1] | [2] | [3] | [4] | [5] | [6] | [7] | [8]

B2: Orc2 (protein, UniProt P32833 1-620)
chain: MLNGEDFVEHNDILSSPAKSRNVTPKRVDPHGERQLRRIHSSKKNLLERISLVGNERKNTSPDPALKPKTPSKAPRKRGRPRKIQEELTDRIKKDEKDTISSKKKRKLDKDTSGNVNEESKTSNNKQVMEKTGIKEKREREKIQVATTTYEDNVTPQTDDNFVSNSPEPPEPATPSKKSLTTNHDFTSPLKQIIMNNLKEYKDSTSPGKLTLSRNFTPTPVPKNKKLYQTSETKSASSFLDTFEGYFDQRKIVRTNAKSRHTMSMAPDVTREEFSLVSNFFNENFQKRPRQKLFEIQKKMFPQYWFELTQGFSLLFYGVGSKRNFLEEFAIDYLSPKIAYSQLAYENELQQNKPVNSIPCLILNGYNPSCNYRDVFKEITDLLVPAELTRSETKYWGNHVILQIQKMIDFYKNQPLDIKLILVVHNLDGPSIRKNTFQTMLSFLSVIRQIAIVASTDHIYAPLLWDNMKAQNYNFVFHDISNFEPSTVESTFQDVMKMGKSDTSSGAEGAKYVLQSLTVNSKKMYKLLIETQMQNMGNLSANTGPKRGTQRTGVELKLFNHLCAADFIASNEIALRSMLREFIEHKMANITKNNSGMEIIWVPYTYAELEKLLKTVLNTL
binds: [3] | [4] | [6] | [7]

B3: Orc6 (protein, UniProt P38826 1-435)
chain: MSMQQVQHCVAEVLRLDPQEKPDWSSGYLKKLTNATSILYNTSLNKVMLKQDEEVARCHICAYIASQKMNEKHMPDLCYYIDSIPLEPKKAKHLMNLFRQSLSNSSPMKQFAWTPSPKKNKRSPVKNGGRFTSSDPKELRNQLFGTPTKVRKSQNNDSFVIPELPPMQTNESPSITRRKLAFEEDEDEDEEEPGNDGLSLKSHSNKSITGTRNVDSDEYENHESDPTSEEEPLGVQESRSGRTKQNKAVGKPQSELKTAKALRKRGRIPNSLLVKKYCKMTTEEIIRLCNDFELPREVAYKIVDEYNINASRLVCPWQLVCGLVLNCTFIVFNERRRKDPRIDHFIVSKMCSLMLTSKVDDVIECVKLVKELIIGEKWFRDLQIRYDDFDGIRYDEIIFRKLGSMLQTTNILVTDDQYNIWKKRIEMDLALTEPL
binds: [3] | [4] | [6] | [7]
